Results from article PMC7618248, “VEL-dependent polymerization maintains the chromatin association of Polycomb proteins for the switch to epigenetic silencing” (Molecular cell, 2025).
Results are given in words; binding and its absence hold for the method and conditions named. Binding seen in cells or lysates may run through a third protein.

Sequences of proteins named here, by UniProt entry; tags and fusion partners are left off. A change or cut given only in a name is not applied to a line headed by its entry.
UniProt Q9FIE3: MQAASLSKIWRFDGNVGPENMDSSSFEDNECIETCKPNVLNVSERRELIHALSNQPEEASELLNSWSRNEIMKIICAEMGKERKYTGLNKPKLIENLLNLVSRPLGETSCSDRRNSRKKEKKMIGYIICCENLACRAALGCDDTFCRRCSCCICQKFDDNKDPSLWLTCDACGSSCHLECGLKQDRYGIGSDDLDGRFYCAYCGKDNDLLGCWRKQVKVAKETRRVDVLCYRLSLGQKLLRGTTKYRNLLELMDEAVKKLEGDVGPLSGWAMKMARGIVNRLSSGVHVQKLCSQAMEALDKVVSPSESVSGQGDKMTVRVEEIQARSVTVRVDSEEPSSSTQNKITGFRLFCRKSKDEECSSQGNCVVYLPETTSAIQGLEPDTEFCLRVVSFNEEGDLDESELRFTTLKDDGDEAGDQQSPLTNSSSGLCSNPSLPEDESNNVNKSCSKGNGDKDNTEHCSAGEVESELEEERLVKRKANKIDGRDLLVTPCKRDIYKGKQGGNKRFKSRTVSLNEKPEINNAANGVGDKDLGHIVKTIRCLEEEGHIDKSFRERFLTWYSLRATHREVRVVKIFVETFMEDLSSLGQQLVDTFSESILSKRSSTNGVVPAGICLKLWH

Target: VIN3-GFP ΔVEL (Arabidopsis thaliana) (UniProt Q9FIE3)
Assay: co-IP; GFP-Trap immunoprecipitates from extracts of vernalized plants with VIN3-GFP transgenes, immunoblot probed with anti-FIE; IP buffer 50 mM Tris-HCl pH 7.5, 150 mM NaCl, 0.5% NP-40, 1% Triton-X; non-transgenic Col-FRI as negative control

binding: no binding
B1: FIE (protein, UniProt Q9LT47 1-369)
chain: MSKITLGNESIVGSLTPSNKKSYKVTNRIQEGKKPLYAVVFNFLDARFFDVFVTAGGNRITLYNCLGDGAISALQSYADEDKEESFYTVSWACGVNGNPYVAAGGVKGIIRVIDVNSETIHKSLVGHGDSVNEIRTQPLKPQLVITASKDESVRLWNVETGICILIFAGAGGHRYEVLSVDFHPSDIYRFASCGMDTTIKIWSMKEFWTYVEKSFTWTDDPSKFPTKFVQFPVFTASIHTNYVDCNRWFGDFILSKSVDNEILLWEPQLKENSPGEGASDVLLRYPVPMCDIWFIKFSCDLHLSSVAIGNQEGKVYVWDLKSCPPVLITKLSHNQSKSVIRQTAMSVDGSTILACCEDGTIWRWDVITK
